Measurements as given in doi:10.1101/2025.10.26.684595.
Results are given in words; binding and its absence hold for the method and conditions named. Binding can be weak; no strength is given.

Amino acid sequences for entries named in this document (tags omitted).
UniProt E2JF22: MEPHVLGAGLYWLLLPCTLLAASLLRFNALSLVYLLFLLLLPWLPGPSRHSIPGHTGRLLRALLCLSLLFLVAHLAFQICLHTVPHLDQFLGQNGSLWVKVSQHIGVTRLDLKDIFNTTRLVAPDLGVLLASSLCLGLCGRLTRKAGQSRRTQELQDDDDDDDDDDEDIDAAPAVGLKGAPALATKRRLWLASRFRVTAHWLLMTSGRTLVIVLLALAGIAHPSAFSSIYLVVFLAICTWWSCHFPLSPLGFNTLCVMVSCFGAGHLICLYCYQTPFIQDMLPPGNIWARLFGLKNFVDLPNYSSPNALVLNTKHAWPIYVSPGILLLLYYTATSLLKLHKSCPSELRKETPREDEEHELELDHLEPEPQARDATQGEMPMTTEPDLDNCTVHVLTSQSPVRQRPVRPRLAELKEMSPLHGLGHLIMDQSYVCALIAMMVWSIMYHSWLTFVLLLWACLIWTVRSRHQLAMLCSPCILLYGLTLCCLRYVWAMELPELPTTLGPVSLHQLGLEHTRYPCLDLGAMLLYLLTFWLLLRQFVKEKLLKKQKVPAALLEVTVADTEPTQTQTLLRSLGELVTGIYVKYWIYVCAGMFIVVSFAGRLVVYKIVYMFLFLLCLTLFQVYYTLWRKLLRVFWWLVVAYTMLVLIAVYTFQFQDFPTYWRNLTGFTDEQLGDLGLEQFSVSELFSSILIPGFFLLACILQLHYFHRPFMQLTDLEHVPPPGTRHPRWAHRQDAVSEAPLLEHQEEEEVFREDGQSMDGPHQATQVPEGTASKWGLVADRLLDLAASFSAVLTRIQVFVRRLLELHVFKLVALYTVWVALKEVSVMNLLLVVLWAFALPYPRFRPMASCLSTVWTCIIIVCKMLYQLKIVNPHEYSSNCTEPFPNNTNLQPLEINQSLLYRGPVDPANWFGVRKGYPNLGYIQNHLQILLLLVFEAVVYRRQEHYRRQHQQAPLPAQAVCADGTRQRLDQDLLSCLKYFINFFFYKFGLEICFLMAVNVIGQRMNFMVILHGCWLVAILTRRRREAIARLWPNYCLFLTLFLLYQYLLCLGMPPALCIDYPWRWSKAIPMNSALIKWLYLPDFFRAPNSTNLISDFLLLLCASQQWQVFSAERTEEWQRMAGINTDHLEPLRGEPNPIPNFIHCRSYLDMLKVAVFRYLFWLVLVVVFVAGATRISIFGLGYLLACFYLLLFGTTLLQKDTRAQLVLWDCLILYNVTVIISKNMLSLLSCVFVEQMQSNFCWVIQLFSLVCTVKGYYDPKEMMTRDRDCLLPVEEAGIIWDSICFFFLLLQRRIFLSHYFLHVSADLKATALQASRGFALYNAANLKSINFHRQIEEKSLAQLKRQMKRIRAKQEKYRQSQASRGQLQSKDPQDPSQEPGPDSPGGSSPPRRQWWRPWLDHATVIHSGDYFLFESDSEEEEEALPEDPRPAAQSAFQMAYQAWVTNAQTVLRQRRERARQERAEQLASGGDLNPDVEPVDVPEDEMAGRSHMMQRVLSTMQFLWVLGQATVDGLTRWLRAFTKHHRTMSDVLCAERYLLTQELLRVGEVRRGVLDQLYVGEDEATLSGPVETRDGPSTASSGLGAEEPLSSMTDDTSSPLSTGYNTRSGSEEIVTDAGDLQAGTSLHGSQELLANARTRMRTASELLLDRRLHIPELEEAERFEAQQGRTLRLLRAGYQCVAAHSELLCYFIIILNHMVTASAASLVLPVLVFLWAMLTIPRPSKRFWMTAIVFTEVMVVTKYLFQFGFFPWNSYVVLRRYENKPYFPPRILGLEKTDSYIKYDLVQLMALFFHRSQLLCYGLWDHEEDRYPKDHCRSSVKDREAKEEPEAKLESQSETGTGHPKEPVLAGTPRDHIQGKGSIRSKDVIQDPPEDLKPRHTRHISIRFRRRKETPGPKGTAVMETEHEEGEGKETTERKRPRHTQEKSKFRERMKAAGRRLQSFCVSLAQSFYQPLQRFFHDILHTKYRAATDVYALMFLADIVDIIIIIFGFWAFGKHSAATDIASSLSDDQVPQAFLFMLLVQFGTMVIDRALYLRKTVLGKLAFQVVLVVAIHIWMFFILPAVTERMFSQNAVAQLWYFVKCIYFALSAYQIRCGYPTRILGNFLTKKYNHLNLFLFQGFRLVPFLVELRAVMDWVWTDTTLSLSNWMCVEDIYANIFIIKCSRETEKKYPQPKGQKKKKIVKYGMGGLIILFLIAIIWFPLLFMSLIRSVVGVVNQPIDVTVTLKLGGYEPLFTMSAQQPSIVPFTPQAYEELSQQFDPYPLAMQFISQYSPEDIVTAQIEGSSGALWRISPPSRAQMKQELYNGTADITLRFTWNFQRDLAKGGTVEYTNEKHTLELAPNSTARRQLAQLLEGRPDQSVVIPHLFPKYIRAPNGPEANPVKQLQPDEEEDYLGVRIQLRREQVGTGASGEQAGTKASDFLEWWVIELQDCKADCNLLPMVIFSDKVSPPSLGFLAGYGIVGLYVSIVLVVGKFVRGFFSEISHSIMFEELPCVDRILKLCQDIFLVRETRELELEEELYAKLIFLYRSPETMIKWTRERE

Target: mouse PIEZO1 in the cryo-EM complex with mouse MDFI (mouse) (UniProt E2JF22)
Assay: cryo-EM structure

binding: binds
Substance: mouse MDFI in the cryo-EM complex with mouse PIEZO1 (from UniProt P70331-2)
